Results on 36 molecules are retold here after PubChem BioAssay AID1487 (National Center for Advancing Translational Sciences (NCATS), 2009).

The assay in a line: qHTS Assay for Modulators of Lamin A Splicing. The note with it: HeLa LMNA splicing GFP/RFP minigene ratio, 48 h. In outline:
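Read-out is the ratio of GFP to DsRed2 object intensity, acquired by 488 nm laser-scanning cytometry on HeLa lamin A-EGFP minigene reporter cells. Compound incubation 48 hrs at 37 °C in Opti-MEM with 2% FBS; DMSO 0.5% final.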

[1] abbreviates: measured here: GFP splicing reporter channel.
Setting [2] is: measured here: RFP viability control channel.

This is one part of the list. Further columns of the screen follow, without active or inactive calls. Most of these compounds were active or inconclusive in the main read-out, so they are no random draw. Potencies come from curve fits of mixed quality, noted in brackets.

As a reminder, the AC50 is the concentration giving half of the maximal activity seen. With `CCOc1ccc(/C=N/OCC(=O)Nc2ccc(OCc3ccccc3)cc2)cc1OC`, the AC50 reads like this: under setting [1], 11.2 µM [rising, partial curve]; under setting [2], 14.1 µM [rising, partial curve].

Take `N#Cc1cc2c(nc1SCc1cccnc1)CCCC2`: the concentration at half-maximal activity (AC50) under setting [1] was 0.355 µM [rising, full curve, poor fit] and the AC50 under setting [2] is 4.47 µM [rising, single point]. Take `Cc1nc2ccccc2c2oc(C(=O)NC3CC3)cc12`: the AC50 under setting [2] was 35.5 µM [rising, single point]. The same measure, in the same setting: under `CCOC(=O)Cc1csc(SCc2cc(=O)oc3cc(O)ccc23)n1` stands 12.6 µM [rising, single point]; under `CC(OC(=O)c1nn(C(C)C)c(=O)c2ccccc12)C(=O)Nc1ncc(Cl)cc1Cl` (centres undefined), 5.62 µM [rising, single point]; under `CCOc1ccc(S(=O)(=O)N2CCN(c3ccc(C)cc3C)CC2)cc1`, 22.4 µM [rising, single point].

`CCOC(=O)c1sc(-c2ccccn2)nc1C`: the AC50 under setting [2] is 0.0447 µM [falling, full curve]. Consider `O=C1C2C3c4ccccc4C(c4ccccc43)C2C(=O)N1Cc1ccco1` (centres undefined), for which the AC50 reads like this: under setting [1], 14.1 µM [rising, single point]; under setting [2], 22.4 µM [rising, partial curve]. Take `COc1ccc(N2CCN(C(CNC(=O)c3ccc4c(c3)OCO4)c3ccco3)CC2)cc1` (centres undefined): the AC50 is 2.82 µM [falling, partial curve] under setting [1] and 0.447 µM [falling, partial curve, poor fit] under setting [2]. `COc1ccc(NC(=S)NNc2ccc([N+](=O)[O-])cc2S(=O)(=O)Nc2ccc(C)cc2C)cc1`: under setting [2], the AC50 was 12.6 µM [rising, partial curve]. As for `OCCNc1ncnc2c1sc1nc(N3CCOCC3)c3c(c12)CCC3`, under setting [1], the AC50 is 10 µM [falling, partial curve]. Regarding `O=C(Nc1ccc(Cl)cc1)Nc1nc(-c2sccc2Br)cs1`, the AC50 runs as follows: under setting [1], 11.2 µM [falling, partial curve]; under setting [2], 11.2 µM [falling, partial curve]. In the case of `CCOc1ccc(/C=C2/SC(=S)N(n3c(C)ccc3C)C2=O)cc1`, the AC50 under setting [2] is 31.6 µM [rising, single point].

As for `CCOC(=O)c1c(-c2ccccc2)oc2ccc(O)c(CN3CCOCC3)c12`, the AC50 under setting [2] was 20 µM [rising, single point]. Still for that read-out and setting: under `CC(C)(C)c1ccc(-c2n[nH]c(=S)n2C2CCCC2)cc1` stands 3.16 µM [rising, single point]. As to `CC(=O)Nc1c(C)nn(-c2ccccc2)c1N1CCC(C(=O)Nc2cc(F)ccc2F)CC1`, the AC50 under setting [1] was 0.891 µM [rising, full curve, poor fit]. For the molecule `CC(=O)Nc1ccc(S(=O)(=O)N2CCN(Cc3cccc([N+](=O)[O-])c3)CC2)cc1`, under setting [2], the AC50 is 5.62 µM [rising, single point]. Take `COc1ccc(S(=O)(=O)c2c(Nc3ccc(C)cc3C)sc(C(=O)c3ccc(F)cc3)c2N)cc1`: the AC50 was 2.82 µM [rising, full curve, poor fit] under setting [1] and 2.51 µM [rising, full curve] under setting [2]. For the molecule `O=C1CC(c2c[nH]c3ccccc23)C(=O)N1` (centres undefined), the concentration at half-maximal activity (AC50) runs as follows: under setting [1], 0.00447 µM [rising, full curve, poor fit]; under setting [2], 0.00355 µM [rising, full curve, poor fit]. On to `Cc1ccc(C)c2c1[nH]c1ccc([N+](=O)[O-])cc12`, for which, under setting [2], the AC50 was 35.5 µM [rising, single point]. Still for that read-out and setting: next, `COc1ccc(CCNC(=S)Nc2cccc(C)c2)cc1`: 22.4 µM [rising, single point]; `O=C1C(=C(c2ccccc2)c2ccccc2)Nc2ccccc21`: 31.6 µM [rising, single point].

On to `O=C(CSc1nc2c([nH]c3ccccc32)c(=O)n1-c1cccc(Cl)c1)c1ccccc1`, for which the AC50 was 8.91 µM [falling, partial curve, poor fit] under setting [1] and 7.94 µM [falling, partial curve, poor fit] under setting [2]. For the molecule `CSCCC(N)C(=O)O` (centres undefined), under setting [1], the AC50 is 10 µM [rising, partial curve, poor fit]. On to `O=c1[nH][nH]c(=O)c2c(NS(=O)(=O)c3ccccc3)cccc12`, for which the AC50 under setting [2] was 4.47 µM [rising, single point]. Same read-out and setting: under `CCN(CC)c1ccc(/C=C(\C#N)C(=O)c2ccc(Br)cc2)cc1` stands 15.8 µM [rising, single point].

`Cc1cccc(C(=O)NC2CC3CCCC(C2)N3S(=O)(=O)c2ccccc2)c1` (centres undefined): the AC50 under setting [2] is 20 µM [rising, single point]. In the case of `Cc1ccc([N+](=O)[O-])cc1N=Cc1ccc(Br)s1`, the AC50 is, setting by setting: under setting [1], 0.158 µM [rising, full curve, poor fit]; under setting [2], 0.282 µM [rising, partial curve, poor fit].

Regarding `C1CCC(C(C[C@@H]2CCCCN2)C2CCCCC2)CC1`, the half-maximal activity concentration (AC50) is, setting by setting: under setting [1], 14.1 µM [falling, partial curve, poor fit]; under setting [2], 11.2 µM [falling, single point].

In the case of `Oc1cc2ccccc2cc1-c1n[nH]c(=S)n1Cc1ccco1`, the AC50 under setting [1] is 6.31 µM [rising, partial curve, poor fit]. On to `Cc1cccc2sc(N(Cc3cccnc3)C(=O)CCOc3ccccc3)nc12`, for which the AC50 is 17.8 µM [falling, partial curve, poor fit] under setting [1] and 28.2 µM [falling, single point] under setting [2].

For the molecule `COc1ccc(S(=O)(=O)N(CC(=O)N/N=C/c2cccs2)c2cc(C)cc(C)c2)cc1OC`, the AC50 under setting [2] is 11.2 µM [rising, partial curve]. As for `CCOC(=O)c1ccc(N2CCN(c3ccccc3OC)CC2)c(NC(=O)Nc2ccc(CC)cc2)c1`, the AC50 under setting [1] was 0.1 µM [rising, full curve, poor fit]. The same measure, in the same setting: next, `CCOC(=O)c1c(C)noc1-c1ccco1`: 35.5 µM [rising, single point]. For the molecule `O=C1CSC(c2ccc(F)cc2)N1c1nc2ccccc2s1` (centres undefined), the AC50 was 11.2 µM [rising, single point] under setting [1] and 12.6 µM [rising, single point] under setting [2].

On to `CC(C)Cn1c(N)c(C(=O)CSc2ccccc2)c(=O)n(C)c1=O`, for which the AC50 is, setting by setting: under setting [1], 2 µM [rising, partial curve, poor fit]; under setting [2], 10 µM [rising, partial curve].
